These are yes or no findings as the source states them, for the method shown. Binding seen in cells or lysates may run through a third protein. A yes stands for co-enrichment or nearness to the bait. Other partners may have been found.
Target: Focal adhesion kinase (FAK), wild-type, re-expressed in FAK-deficient SCC cells (UniProt P34152)
Test: affinity purification with mass spectrometry; FAK immunoprecipitation from purified nuclear extracts, on-bead digestion, quantitative label-free LC-MS/MS; SCC FAK-WT over SCC FAK-/- controls

Amino acid sequences for entries named in this document (tags omitted).
UniProt P34152: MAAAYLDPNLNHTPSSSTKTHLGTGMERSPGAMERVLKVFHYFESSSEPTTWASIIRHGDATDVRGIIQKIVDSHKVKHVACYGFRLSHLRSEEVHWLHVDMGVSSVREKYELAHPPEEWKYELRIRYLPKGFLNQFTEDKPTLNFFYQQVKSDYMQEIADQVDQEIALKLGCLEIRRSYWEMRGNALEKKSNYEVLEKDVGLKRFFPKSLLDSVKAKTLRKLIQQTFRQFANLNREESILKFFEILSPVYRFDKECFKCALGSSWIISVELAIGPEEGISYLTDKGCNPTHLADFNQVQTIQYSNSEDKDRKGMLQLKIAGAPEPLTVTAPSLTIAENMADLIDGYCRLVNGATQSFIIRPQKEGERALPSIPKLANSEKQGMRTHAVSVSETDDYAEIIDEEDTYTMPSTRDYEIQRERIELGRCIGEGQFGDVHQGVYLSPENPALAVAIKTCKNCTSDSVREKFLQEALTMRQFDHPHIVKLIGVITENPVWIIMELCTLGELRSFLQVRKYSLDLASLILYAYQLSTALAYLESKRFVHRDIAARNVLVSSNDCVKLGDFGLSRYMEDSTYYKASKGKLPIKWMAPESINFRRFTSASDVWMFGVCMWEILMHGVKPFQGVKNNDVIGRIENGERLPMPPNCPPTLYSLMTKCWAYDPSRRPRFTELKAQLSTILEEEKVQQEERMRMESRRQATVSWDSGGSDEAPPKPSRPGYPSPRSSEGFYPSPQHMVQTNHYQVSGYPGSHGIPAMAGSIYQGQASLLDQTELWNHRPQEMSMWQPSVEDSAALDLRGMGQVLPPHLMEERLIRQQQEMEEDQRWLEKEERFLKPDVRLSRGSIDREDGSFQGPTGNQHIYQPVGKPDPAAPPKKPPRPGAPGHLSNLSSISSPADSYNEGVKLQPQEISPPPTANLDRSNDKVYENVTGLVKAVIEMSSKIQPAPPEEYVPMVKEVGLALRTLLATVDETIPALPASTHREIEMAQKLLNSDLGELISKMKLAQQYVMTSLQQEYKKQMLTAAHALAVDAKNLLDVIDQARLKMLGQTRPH
UniProt Q8VI33: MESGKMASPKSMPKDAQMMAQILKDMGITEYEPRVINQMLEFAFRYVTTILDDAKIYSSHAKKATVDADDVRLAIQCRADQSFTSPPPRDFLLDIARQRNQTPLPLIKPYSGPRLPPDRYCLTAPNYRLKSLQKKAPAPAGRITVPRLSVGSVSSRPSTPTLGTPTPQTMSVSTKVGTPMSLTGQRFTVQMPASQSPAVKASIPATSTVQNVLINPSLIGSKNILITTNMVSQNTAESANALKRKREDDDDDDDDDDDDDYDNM

- binding: binds
Substance: TAF9, TBP-associated factor, core component of the TFIID complex (from UniProt Q8VI33 1-264)

Reference: paper PMC4597190
